Data as given in article PMC12724340.
No constants are given. Whether binding was seen depends on the method and setting. Binding seen in cells or lysates may run through a third protein. Some entries that bind do so weakly or less than the wild type.

Protein sequences, listed by entry. Tags and fused reporters are not part of them. Lines headed by an entry give the natural chain unless they say otherwise; changes in a name come on top. Chains listed by the source or under a name are the forms on record and can include a tag or linker.
Flag-tagged casein kinase 1 delta isoform CK1δ2 (human (cDNA from 293T cells)) (P48730, form named): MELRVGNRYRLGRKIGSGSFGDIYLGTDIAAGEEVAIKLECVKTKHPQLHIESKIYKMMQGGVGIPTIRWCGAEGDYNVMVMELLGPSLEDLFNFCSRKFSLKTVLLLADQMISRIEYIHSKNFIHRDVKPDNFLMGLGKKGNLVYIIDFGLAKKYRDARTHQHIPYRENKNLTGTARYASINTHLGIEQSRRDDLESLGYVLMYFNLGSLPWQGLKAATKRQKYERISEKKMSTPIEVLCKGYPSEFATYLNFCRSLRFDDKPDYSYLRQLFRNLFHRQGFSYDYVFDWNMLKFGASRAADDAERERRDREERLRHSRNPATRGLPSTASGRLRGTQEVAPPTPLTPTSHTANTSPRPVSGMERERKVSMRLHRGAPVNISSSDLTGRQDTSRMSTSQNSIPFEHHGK
UniProt P49674: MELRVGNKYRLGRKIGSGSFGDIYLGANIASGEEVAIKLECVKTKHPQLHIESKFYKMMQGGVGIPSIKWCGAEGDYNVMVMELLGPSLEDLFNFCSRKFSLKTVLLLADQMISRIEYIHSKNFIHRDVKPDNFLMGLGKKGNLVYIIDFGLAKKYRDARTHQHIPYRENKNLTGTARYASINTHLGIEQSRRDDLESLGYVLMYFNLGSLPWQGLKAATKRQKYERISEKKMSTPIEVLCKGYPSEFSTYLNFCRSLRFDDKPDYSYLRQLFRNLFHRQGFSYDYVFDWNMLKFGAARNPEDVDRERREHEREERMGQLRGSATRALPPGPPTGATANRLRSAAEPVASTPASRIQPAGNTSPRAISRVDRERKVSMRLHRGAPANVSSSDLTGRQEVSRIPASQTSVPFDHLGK
UniProt Q9Y6M1: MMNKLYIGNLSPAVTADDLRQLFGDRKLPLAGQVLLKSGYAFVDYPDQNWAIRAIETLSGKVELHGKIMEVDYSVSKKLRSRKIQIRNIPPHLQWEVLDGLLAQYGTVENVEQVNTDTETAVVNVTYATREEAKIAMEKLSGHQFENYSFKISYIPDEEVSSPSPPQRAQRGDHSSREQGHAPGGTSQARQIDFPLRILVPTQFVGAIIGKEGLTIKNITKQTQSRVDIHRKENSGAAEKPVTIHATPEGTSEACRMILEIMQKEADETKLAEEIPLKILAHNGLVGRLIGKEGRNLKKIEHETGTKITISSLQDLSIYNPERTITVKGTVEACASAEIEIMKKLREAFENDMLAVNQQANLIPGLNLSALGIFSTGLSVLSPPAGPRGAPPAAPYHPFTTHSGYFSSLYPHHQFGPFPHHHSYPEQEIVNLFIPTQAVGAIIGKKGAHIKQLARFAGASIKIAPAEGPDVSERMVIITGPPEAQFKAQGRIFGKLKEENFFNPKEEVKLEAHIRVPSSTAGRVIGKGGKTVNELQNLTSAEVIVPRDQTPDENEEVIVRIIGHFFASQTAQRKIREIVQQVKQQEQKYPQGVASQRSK
UniProt O00425: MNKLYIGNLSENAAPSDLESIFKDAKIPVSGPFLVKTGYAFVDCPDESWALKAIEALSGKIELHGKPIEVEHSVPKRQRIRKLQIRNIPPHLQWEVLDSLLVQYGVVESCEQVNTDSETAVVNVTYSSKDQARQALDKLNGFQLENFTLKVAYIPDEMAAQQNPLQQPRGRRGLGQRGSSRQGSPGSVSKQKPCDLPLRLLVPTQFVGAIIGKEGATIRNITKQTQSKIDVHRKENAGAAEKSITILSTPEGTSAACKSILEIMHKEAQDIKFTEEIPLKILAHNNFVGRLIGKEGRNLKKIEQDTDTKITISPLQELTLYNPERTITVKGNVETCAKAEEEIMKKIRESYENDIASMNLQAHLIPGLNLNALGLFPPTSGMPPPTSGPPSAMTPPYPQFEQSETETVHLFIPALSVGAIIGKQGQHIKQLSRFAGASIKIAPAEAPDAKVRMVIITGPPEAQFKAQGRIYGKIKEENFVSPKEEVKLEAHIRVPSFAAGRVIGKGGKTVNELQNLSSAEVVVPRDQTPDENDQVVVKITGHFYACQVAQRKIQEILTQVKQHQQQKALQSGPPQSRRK

Key:
Flag-tagged SHFL = Flag-tagged SHFL (UniProt Q9NUL5); experiment: co-IP; Flag-tagged SHFL variant transiently expressed in 293T cells; lysed in Co-IP buffer; anti-Flag M2 affinity gel; endogenous partners detected by western blotting with specific antibodies
Flag-tagged SHFL-T250E = Flag-tagged SHFL-T250E (UniProt Q9NUL5); experiment: as above
[1] = target: Flag-tagged casein kinase 1 delta isoform CK1δ2 (human (cDNA from 293T cells)) (UniProt P48730); experiment: co-IP; Flag-tagged CK1 isoform and Myc-tagged SHFL co-expressed in 293T cells, 48 h; Benzonase added to the lysates; anti-Flag affinity gel; western analysis
[2] = target: Flag-tagged casein kinase 1 epsilon (CK1ε) (human (cDNA from 293T cells)) (UniProt P49674); experiment: as above

binding (Flag-tagged SHFL)	binding (Flag-tagged SHFL-T250E)	binding [1]	binding [2]	Substance
binds	–	–	–	endogenous casein kinase 1 epsilon (CK1ε) (from UniProt P49674 1-416) (enzyme)
binds	binds	–	–	endogenous IGF2BP2 (from UniProt Q9Y6M1 1-599)
binds	binds	–	–	endogenous IGF2BP3 (from UniProt O00425 1-579)
–	–	binds	binds	Myc-tagged SHFL (pLPCX-SHFL-Myc) (from UniProt Q9NUL5 1-291)
